Results published in patent US6455075B1, “Method for control of insects on plants and plant tissue” (priority 1996, dated 2002).

Legend:
[1] = 1% solution
[2] = system: cut flower; settings: 500 PPM in cut flower water, two weeks

OO [hydrogen peroxide]
residue in the boxes [1]: no residue | clarity of the water [2]: remained clear | condition of the flowers [2]: excellent condition with only slight neck droop observed
